PubChem BioAssay AID686937 – Drosophila RNAi Screening Center, 2013

Purpose: 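Knock-downs that reduce output of a secreted reporter enzyme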 (primary screen)
Cell system: Drosophila S2 cells expressing secreted horseradish peroxidase
Reagent: long dsRNA against Drosophila genes
Time to read-out: about 5.5 days (5 days dsRNA, then 12 h reporter induction)
Challenge: reporter expression induced after 5 days of dsRNA, read 12 h later; inducer not stated
Measurement: 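After 5 days of dsRNA and 12 h of reporter induction, medium peroxidase read by chemiluminescence and scored as per-plate z-score; higher values mean more reporter released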
Scale: z-score: higher = more reporter secreted into medium
The deposit covers about 23,000 reagents; this is an unselected part of those that have a named target and a result. 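Reduced-secretion tags in replicate 1 do not always agree with the z-scores; no criterion for assigning the tags was given.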 Reagents against one gene are numbered here. Not all columns of the deposit are shown. Not stated in the record: the amount of reagent.

no.	gene	dsRNA no.	z-score, replicate 1
1	Ppt2	1	0.54
2	CG42826	1	0.26
3	CG43134	1	-1.07
4	woc	1	-1.54
5	wun2	1	0.43
6	CG18233	1	0.2
7	CG17350	1	0.31
8	hang	1	-0.85
9	hang	2	-0.81
10	Grip91	1	0.19
11	CG30466	1	0.04
12	CG9399	1	0.28
13	JMJD4	1	0.38

Next part, starting with the last 3 of the part before.
no.	gene	dsRNA no.	z-score, replicate 1
11	CG30466	1	0.04
12	CG9399	1	0.28
13	JMJD4	1	0.38
14	phtf	1	0.37
15	Nox	1	0.41
16	Nox	2	0.2
17	CG9521	1	0.24
18	Pi4KIIIalpha	1	0.17
19	CG3288	1	0.29
20	sosie	1	0.26
21	sosie	2	0.33
22	CG12645	1	0.28
23	Skp2	1	-0.4
24	bor	1	-0.12
25	Fadd	1	0.31
26	Acsx4	1	0.2
27	CG14282	1	0.28
28	Oseg2	1	0.46
